Experiment: general procedure: peptide synthesis; TBTU/DIEA
Details: conjugation step, MALDI-MS

In the case of “3-(1-(N^α -(3-(α,α-dimethylbenzyl)benzenesulphonyl)-(S)-arginyl)-piperid-4-yl)-propionyl-(Gly)4 -Asn-hirudin(54-64)”, the final ms purity is reported as >98%.

Source: patent US5686564 (dated 1997)
